Test results: the supplement of paper PMC6411743
± gives the standard deviation of the averaged measurements. The list shows a part of the results.

Amino acid sequences for entries named in this document (tags omitted). A change or cut given only in a name is not applied to a line headed by its entry.
UniProt P42765: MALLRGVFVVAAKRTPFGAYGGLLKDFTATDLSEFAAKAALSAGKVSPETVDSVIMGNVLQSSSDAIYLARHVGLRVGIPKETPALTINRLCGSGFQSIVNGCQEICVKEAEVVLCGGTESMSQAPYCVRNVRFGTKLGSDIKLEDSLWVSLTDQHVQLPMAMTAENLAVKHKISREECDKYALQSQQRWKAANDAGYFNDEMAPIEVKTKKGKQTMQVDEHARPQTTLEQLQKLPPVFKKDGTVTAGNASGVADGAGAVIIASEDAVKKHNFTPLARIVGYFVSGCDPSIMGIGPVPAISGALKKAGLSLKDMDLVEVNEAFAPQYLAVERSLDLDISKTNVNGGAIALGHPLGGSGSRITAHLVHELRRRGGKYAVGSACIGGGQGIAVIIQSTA
UniProt P43403: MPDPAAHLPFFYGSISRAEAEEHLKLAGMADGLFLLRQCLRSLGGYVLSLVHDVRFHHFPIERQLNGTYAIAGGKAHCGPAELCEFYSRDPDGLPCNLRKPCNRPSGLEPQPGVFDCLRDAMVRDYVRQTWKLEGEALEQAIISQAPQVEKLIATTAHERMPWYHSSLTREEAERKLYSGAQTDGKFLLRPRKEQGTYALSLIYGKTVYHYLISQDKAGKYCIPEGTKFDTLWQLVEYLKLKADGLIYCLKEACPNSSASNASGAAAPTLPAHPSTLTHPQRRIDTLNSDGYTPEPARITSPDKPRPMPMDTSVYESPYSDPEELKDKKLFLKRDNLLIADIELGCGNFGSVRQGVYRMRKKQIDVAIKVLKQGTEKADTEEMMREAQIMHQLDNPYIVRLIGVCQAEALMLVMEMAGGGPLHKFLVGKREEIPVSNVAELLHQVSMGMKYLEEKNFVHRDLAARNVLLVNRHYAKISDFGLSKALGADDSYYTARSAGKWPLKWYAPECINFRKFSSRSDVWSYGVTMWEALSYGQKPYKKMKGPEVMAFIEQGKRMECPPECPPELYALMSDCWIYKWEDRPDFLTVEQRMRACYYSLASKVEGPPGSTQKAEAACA
UniProt P36915, whole entry: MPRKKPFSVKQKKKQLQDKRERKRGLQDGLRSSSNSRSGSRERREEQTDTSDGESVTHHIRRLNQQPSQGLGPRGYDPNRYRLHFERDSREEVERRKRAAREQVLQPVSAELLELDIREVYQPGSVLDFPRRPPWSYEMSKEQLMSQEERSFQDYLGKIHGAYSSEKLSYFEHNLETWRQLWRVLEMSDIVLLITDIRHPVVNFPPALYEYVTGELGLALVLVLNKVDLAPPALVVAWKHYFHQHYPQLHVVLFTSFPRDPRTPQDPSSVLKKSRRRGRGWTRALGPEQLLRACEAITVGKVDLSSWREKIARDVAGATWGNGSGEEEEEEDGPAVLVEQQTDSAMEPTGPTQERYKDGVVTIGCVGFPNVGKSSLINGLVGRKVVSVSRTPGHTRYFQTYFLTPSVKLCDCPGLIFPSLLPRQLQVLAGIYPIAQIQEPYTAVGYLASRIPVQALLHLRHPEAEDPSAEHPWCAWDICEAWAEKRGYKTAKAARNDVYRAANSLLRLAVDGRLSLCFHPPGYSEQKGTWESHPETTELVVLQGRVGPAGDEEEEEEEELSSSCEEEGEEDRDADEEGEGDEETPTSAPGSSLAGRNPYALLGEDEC
UniProt P35914: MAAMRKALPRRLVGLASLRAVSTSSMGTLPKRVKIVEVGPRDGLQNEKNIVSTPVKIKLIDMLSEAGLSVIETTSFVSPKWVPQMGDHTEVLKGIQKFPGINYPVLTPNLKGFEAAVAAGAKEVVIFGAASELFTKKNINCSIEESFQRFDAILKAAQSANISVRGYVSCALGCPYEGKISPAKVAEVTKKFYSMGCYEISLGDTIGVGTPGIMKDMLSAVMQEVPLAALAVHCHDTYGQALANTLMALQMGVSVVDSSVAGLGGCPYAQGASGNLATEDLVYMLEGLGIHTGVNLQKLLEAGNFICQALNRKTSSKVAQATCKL
UniProt P47813, whole entry: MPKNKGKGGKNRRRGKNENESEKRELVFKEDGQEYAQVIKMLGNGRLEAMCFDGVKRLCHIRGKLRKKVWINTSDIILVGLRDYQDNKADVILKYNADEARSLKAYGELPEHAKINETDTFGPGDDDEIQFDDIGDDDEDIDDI
UniProt P32189: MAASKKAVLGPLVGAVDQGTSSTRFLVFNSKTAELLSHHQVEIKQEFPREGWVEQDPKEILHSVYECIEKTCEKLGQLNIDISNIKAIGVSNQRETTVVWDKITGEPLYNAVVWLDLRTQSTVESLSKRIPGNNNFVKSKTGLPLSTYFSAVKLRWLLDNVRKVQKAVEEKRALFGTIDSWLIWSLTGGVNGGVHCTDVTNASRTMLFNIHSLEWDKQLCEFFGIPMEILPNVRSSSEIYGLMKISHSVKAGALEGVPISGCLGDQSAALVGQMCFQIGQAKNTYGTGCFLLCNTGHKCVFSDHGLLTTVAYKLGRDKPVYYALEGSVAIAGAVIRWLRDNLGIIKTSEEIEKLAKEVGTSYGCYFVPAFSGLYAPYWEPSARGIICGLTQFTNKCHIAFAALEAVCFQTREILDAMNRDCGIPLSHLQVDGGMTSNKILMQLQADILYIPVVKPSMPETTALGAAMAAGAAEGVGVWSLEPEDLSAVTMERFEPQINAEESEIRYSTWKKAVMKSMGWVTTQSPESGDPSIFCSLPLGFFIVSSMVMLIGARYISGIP
UniProt P49591: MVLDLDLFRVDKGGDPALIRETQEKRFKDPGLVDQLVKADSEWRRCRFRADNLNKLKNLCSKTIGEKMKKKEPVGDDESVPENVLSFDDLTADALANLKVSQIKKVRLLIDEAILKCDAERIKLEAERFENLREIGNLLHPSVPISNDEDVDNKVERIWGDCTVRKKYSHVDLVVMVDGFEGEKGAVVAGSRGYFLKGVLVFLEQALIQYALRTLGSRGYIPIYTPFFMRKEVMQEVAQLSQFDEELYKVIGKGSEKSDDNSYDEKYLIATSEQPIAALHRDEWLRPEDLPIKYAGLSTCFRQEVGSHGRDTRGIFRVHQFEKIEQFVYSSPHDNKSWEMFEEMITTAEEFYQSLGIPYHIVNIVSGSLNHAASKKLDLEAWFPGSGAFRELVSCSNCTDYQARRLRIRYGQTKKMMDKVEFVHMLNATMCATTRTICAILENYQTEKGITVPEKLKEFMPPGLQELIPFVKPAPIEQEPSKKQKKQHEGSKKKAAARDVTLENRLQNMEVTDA
UniProt P31751: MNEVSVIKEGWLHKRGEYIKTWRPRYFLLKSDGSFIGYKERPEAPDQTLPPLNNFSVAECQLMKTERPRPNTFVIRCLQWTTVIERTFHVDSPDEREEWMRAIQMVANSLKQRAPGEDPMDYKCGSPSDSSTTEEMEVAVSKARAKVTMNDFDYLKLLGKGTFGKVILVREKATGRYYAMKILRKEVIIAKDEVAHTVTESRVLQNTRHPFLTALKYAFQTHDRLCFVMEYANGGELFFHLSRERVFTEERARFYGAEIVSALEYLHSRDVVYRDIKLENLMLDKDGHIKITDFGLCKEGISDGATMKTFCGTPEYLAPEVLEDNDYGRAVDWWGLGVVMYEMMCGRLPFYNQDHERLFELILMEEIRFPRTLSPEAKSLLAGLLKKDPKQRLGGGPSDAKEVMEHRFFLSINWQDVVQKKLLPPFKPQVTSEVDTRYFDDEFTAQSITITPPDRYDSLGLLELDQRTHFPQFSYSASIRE
UniProt P31930: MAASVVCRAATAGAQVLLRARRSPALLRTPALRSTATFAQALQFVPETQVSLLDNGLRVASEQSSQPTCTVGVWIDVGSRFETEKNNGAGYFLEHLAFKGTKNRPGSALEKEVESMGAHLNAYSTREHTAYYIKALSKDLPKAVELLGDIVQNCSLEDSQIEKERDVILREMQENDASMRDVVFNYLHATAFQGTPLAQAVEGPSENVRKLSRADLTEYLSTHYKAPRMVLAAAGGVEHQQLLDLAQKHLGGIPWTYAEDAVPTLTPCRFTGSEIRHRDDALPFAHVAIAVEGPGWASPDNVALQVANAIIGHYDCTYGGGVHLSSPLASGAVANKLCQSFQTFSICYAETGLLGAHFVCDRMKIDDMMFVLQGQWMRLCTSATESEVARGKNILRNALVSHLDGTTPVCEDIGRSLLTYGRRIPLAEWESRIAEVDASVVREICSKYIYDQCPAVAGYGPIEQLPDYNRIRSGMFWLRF
UniProt P33981: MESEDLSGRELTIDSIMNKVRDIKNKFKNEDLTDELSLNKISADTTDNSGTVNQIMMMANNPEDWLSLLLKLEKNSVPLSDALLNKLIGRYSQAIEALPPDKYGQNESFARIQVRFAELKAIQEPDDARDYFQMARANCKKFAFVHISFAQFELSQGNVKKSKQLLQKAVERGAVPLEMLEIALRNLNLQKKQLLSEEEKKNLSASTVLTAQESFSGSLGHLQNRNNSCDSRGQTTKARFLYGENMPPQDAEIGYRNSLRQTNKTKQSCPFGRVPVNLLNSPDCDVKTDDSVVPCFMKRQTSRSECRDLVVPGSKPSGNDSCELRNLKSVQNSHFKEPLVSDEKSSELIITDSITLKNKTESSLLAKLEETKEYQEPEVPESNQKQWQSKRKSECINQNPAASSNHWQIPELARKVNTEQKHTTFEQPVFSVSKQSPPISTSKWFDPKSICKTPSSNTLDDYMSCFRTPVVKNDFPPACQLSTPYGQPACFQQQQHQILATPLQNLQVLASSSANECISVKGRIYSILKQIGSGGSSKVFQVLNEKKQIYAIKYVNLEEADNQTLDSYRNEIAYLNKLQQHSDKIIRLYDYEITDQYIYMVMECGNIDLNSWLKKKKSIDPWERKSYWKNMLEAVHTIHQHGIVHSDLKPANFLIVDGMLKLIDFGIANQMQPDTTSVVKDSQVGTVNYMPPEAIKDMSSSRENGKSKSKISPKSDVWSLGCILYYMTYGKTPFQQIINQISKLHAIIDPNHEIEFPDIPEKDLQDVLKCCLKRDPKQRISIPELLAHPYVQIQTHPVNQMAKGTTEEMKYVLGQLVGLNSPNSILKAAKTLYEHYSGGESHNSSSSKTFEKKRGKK
UniProt P49189: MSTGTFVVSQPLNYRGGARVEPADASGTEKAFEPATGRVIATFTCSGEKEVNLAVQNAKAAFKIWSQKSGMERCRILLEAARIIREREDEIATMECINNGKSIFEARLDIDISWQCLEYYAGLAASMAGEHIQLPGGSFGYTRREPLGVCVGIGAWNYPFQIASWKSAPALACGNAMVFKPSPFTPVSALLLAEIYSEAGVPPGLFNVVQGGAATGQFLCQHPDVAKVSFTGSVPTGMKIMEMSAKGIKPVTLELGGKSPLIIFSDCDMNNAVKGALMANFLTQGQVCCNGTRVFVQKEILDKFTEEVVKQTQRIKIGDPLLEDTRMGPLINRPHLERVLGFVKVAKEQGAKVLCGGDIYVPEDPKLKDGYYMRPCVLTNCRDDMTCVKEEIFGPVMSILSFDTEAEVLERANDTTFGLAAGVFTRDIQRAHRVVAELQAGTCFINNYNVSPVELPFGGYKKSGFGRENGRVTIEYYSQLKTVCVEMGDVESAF
UniProt P40925: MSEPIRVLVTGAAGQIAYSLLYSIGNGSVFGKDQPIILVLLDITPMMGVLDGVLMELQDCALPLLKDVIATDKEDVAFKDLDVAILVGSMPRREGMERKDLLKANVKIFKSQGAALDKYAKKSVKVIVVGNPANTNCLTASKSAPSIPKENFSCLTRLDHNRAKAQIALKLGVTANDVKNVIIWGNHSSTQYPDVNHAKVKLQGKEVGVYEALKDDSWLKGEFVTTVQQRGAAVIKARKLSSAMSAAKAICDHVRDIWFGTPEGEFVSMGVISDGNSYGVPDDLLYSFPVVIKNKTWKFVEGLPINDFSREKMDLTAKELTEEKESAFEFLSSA
UniProt P30041: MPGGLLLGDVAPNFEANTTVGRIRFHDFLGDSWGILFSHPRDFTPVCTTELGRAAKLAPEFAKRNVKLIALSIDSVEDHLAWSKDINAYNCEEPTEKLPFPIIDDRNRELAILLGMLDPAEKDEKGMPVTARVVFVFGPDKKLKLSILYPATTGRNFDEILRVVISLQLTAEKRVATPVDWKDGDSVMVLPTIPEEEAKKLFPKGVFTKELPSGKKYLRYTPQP
UniProt P28072: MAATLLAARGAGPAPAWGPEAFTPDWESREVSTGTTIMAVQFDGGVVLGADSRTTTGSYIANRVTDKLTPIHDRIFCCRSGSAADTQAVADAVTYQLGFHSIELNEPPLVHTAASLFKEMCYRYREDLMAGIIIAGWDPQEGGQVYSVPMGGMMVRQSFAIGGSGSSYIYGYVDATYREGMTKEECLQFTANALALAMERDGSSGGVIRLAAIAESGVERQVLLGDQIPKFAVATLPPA
UniProt P47224: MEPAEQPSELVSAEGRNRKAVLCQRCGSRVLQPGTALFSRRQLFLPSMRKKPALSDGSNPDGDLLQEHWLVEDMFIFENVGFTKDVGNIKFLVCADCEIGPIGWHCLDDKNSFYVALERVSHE

Compound: Nc1nc2c(ncn2[C@@H]2O[C@H](COP(=O)(O)OP(=O)(O)OP(=O)(O)O)[C@@H](O)[C@H]2O)c(=O)[nH]1 [guanosine triphosphate]
Experiment: NP40-soluble protein abundance relative to vehicle (solubility fold change) (ratio); higher = more soluble protein in presence of GTP
Method in brief: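 Jurkat crude lysate prepared with a Dounce homogeniser was treated at eight concentrations spanning 0.1 to 10 mM, 10 min at room temperature then 3 min at 37 °C. Solubilisation with 0.8% NP40 and benzonase and ultracentrifugation preceded TMT labelling of the supernatant for LC-MS/MS. Fold change against the detergent-processed vehicle was determined per replicate from vsn-normalised intensities, across three independent experiments.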

Row | Target | NP40-soluble protein abundance (concentration: 0.1mM) | NP40-soluble protein abundance (concentration: 0.5mM) | NP40-soluble protein abundance (concentration: 1mM) | NP40-soluble protein abundance (concentration: 2mM) | NP40-soluble protein abundance (concentration: 4mM) | NP40-soluble protein abundance (concentration: 6mM) | NP40-soluble protein abundance (concentration: 8mM) | NP40-soluble protein abundance (concentration: 10mM)
1 | UniProt P42765 and related entries | 0.938 ± 0.057 | 0.971 ± 0.036 | 0.92 ± 0.038 | 0.901 ± 0.043 | 0.89 ± 0.045 | 0.898 ± 0.029 | 0.889 ± 0.042 | 0.867 ± 0.039
2 | ZAP70 (UniProt P43403) | 1.02 ± 0.026 | 1.03 ± 0.067 | 0.932 ± 0.029 | 0.927 ± 0.032 | 0.908 ± 0.019 | 0.889 ± 0.018 | 0.875 ± 0.047 | 0.827 ± 0.05
3 | PSMC4 (UniProt P43686) | 1.02 ± 0.022 | 1.07 ± 0.077 | 1.05 ± 0.1 | 1.12 ± 0.15 | 1.1 ± 0.15 | 1.13 ± 0.19 | 1.1 ± 0.16 | 1.06 ± 0.16
4 | GNL1 (UniProt P36915) | 1.05 ± 0.023 | 1.03 ± 0.019 | 0.972 ± 0.033 | 0.95 ± 0.015 | 0.9647 ± 0.0095 | 0.944 ± 0.02 | 0.959 ± 0.045 | 0.906 ± 0.061
5 | UniProt P46783 and related entries | 1.01 ± 0.12 | 0.992 ± 0.055 | 1.15 ± 0.19 | 1.11 ± 0.14 | 1.04 ± 0.19 | 0.999 ± 0.17 | 0.964 ± 0.16 | 1.04 ± 0.21
6 | HMGCL (UniProt P35914) | 0.92 ± 0.032 | 0.878 ± 0.022 | 0.924 ± 0.045 | 0.932 ± 0.071 | 0.896 ± 0.035 | 0.899 ± 0.038 | 0.842 ± 0.054 | 0.897 ± 0.055
7 | UniProt P47813 | 0.9205 ± 0.0017 | 0.87 ± 0.011 | 0.9582 ± 0.0091 | 1.027 ± 0.0088 | 1.139 ± 0.0049 | 1.166 ± 0.0046 | 1.05 ± 0.14 | 1.25 ± 0.1
8 | UniProt P32189 and related entries | 0.999 ± 0.036 | 1.07 ± 0.024 | 0.971 ± 0.021 | 0.9088 ± 0.0085 | 0.9654 ± 0.0053 | 0.96 ± 0.045 | 0.833 ± 0.058 | 0.881 ± 0.029
9 | UniProt P49591 and related entries | 0.983 ± 0.039 | 0.961 ± 0.018 | 0.919 ± 0.015 | 0.893 ± 0.035 | 0.895 ± 0.035 | 0.859 ± 0.024 | 0.866 ± 0.011 | 0.846 ± 0.069
10 | UniProt P49750-4 | 1.01 ± 0.013 | 1.04 ± 0.033 | 1.11 ± 0.038 | 1.16 ± 0.064 | 1.27 ± 0.034 | 1.37 ± 0.058 | 1.54 ± 0.13 | 1.62 ± 0.17
11 | UniProt P41229 and related entries | 1.08 ± 0.017 | 1.01 ± 0.03 | 1.05 ± 0.049 | 1.04 ± 0.054 | 1.008 ± 0.006 | 1.04 ± 0.078 | 0.938 ± 0.15 | 0.984 ± 0.074
12 | AKT2 (UniProt P31751) | 1.07 ± 0.09 | 1.02 ± 0.099 | 0.913 ± 0.044 | 0.919 ± 0.12 | 0.945 ± 0.11 | 0.865 ± 0.082 | 0.882 ± 0.038 | 0.818 ± 0.091
13 | UniProt P28907 | 0.92 ± 0.058 | 0.876 ± 0.075 | 0.927 ± 0.063 | 0.902 ± 0.091 | 0.891 ± 0.088 | 0.925 ± 0.088 | 0.895 ± 0.1 | 0.894 ± 0.058
14 | UQCRC1 (UniProt P31930) | 0.996 ± 0.032 | 1.03 ± 0.049 | 0.994 ± 0.05 | 0.994 ± 0.046 | 0.995 ± 0.082 | 0.982 ± 0.072 | 1 ± 0.081 | 0.977 ± 0.099
15 | PHKA2 (UniProt P46019) | 1.05 ± 0.044 | 1.06 ± 0.048 | 1.08 ± 0.046 | 1.09 ± 0.067 | 1.11 ± 0.072 | 1.1 ± 0.074 | 1.15 ± 0.11 | 1.04 ± 0.12
16 | UniProt P33981 and related entries | 1.04 ± 0.03 | 1.02 ± 0.066 | 1.07 ± 0.064 | 1.03 ± 0.054 | 1.04 ± 0.045 | 1.04 ± 0.033 | 1.13 ± 0.072 | 1.05 ± 0.012
17 | ALDH9A1 (UniProt P49189) | 0.992 ± 0.02 | 1.02 ± 0.028 | 0.953 ± 0.016 | 0.955 ± 0.032 | 0.944 ± 0.036 | 0.951 ± 0.037 | 0.9227 ± 0.008 | 0.918 ± 0.034
18 | PREP (UniProt P48147) | 1.04 ± 0.06 | 1.05 ± 0.071 | 0.942 ± 0.053 | 0.945 ± 0.073 | 0.925 ± 0.068 | 0.917 ± 0.048 | 0.874 ± 0.025 | 0.861 ± 0.072
19 | UniProt P40925 and related entries | 0.939 ± 0.042 | 0.939 ± 0.035 | 0.918 ± 0.044 | 0.857 ± 0.046 | 0.861 ± 0.057 | 0.869 ± 0.041 | 0.863 ± 0.055 | 0.818 ± 0.053
20 | PRDX6 (UniProt P30041) | 0.968 ± 0.087 | 0.889 ± 0.033 | 0.893 ± 0.03 | 0.9 ± 0.044 | 0.889 ± 0.049 | 0.873 ± 0.019 | 0.795 ± 0.1 | 0.806 ± 0.081
21 | FNTA (UniProt P49354) | 0.922 ± 0.04 | 0.921 ± 0.082 | 0.938 ± 0.058 | 0.958 ± 0.029 | 0.954 ± 0.014 | 0.9151 ± 0.0052 | 0.899 ± 0.066 | 0.908 ± 0.033
22 | PSMB6 (UniProt P28072) | 0.98 ± 0.066 | 1.04 ± 0.088 | 1 ± 0.11 | 1.07 ± 0.14 | 1.03 ± 0.14 | 1.08 ± 0.18 | 1.05 ± 0.14 | 1.05 ± 0.15
23 | RBM34 (UniProt P42696) | 1.08 ± 0.0039 | 1.05 ± 0.034 | 1.14 ± 0.028 | 1.23 ± 0.065 | 1.41 ± 0.066 | 1.57 ± 0.12 | 1.68 ± 0.12 | 1.83 ± 0.066
24 | ICAM3 (UniProt P32942) | 0.953 ± 0.017 | 0.944 ± 0.029 | 0.973 ± 0.027 | 0.917 ± 0.073 | 0.911 ± 0.061 | 0.923 ± 0.051 | 0.923 ± 0.035 | 0.954 ± 0.038
25 | RANGAP1 (UniProt P46060) | 0.902 ± 0.12 | 0.9 ± 0.1 | 0.888 ± 0.1 | 0.888 ± 0.11 | 0.905 ± 0.12 | 0.925 ± 0.11 | 0.943 ± 0.11 | 0.974 ± 0.15
26 | RABIF (UniProt P47224) | 0.947 ± 0.14 | 0.919 ± 0.065 | 0.897 ± 0.092 | 0.897 ± 0.074 | 0.897 ± 0.13 | 0.856 ± 0.1 | 0.829 ± 0.13 | 0.868 ± 0.11
27 | PSMB4 (UniProt P28070) | 0.926 ± 0.12 | 1.01 ± 0.11 | 0.939 ± 0.11 | 1.04 ± 0.14 | 1.05 ± 0.21 | 1.03 ± 0.22 | 0.945 ± 0.14 | 0.976 ± 0.14
28 | UniProt P36954 | 1.05 ± 0.072 | 1.05 ± 0.036 | 1.2 ± 0.13 | 1.22 ± 0.077 | 1.23 ± 0.15 | 1.18 ± 0.12 | 1.24 ± 0.17 | 1.27 ± 0.18
29 | CASP3 (UniProt P42574) | 1.07 ± 0.025 | 1.03 ± 0.053 | 0.892 ± 0.037 | 0.911 ± 0.11 | 0.909 ± 0.047 | 0.856 ± 0.042 | 0.805 ± 0.08 | 0.815 ± 0.1
30 | UniProt P27701 and related entries | 0.973 ± 0.08 | 0.937 ± 0.1 | 0.942 ± 0.079 | 0.952 ± 0.076 | 0.961 ± 0.059 | 0.909 ± 0.062 | 0.952 ± 0.07 | 0.979 ± 0.039

Full records, quoted from the list. Order of values: NP40-soluble protein abundance (concentration: 0.1mM)	NP40-soluble protein abundance (concentration: 0.5mM)	NP40-soluble protein abundance (concentration: 1mM)	NP40-soluble protein abundance (concentration: 2mM)	NP40-soluble protein abundance (concentration: 4mM)	NP40-soluble protein abundance (concentration: 6mM)	NP40-soluble protein abundance (concentration: 8mM)	NP40-soluble protein abundance (concentration: 10mM)
PRDX6 (UniProt P30041) is listed with 0.968 ± 0.087	0.889 ± 0.033	0.893 ± 0.03	0.9 ± 0.044	0.889 ± 0.049	0.873 ± 0.019	0.795 ± 0.1	0.806 ± 0.081
UniProt P41229 and related entries is listed with 1.08 ± 0.017	1.01 ± 0.03	1.05 ± 0.049	1.04 ± 0.054	1.008 ± 0.006	1.04 ± 0.078	0.938 ± 0.15	0.984 ± 0.074
